Values quoted from earlier work, collected in patent US9415193B2, “Eluting medical devices” (W. L. Gore & Associates, Inc., priority 2011, dated 2016).

solubilized concentration in solution (hydroxypropyl-β-cyclodextrin at 60% (w/v in water)): approximately 4 mM
solubility limit in water (neat DI-water, room temperature): about 0.4 μM
SMILES: CC(=O)O[C@H]1C(=O)[C@@]2(C)[C@H]([C@H](OC(=O)c3ccccc3)[C@]3(O)C[C@H](OC(=O)[C@H](O)[C@@H](NC(=O)c4ccccc4)c4ccccc4)C(C)=C1C3(C)C)[C@]1(OC(C)=O)CO[C@@H]1C[C@@H]2O [paclitaxel]
